Reference: publication PMC2930282 (The Journal of Cell Biology, 2010)

The chains behind the UniProt entries cited, without tags or fusion partners.
UniProt Q86C65, whole entry: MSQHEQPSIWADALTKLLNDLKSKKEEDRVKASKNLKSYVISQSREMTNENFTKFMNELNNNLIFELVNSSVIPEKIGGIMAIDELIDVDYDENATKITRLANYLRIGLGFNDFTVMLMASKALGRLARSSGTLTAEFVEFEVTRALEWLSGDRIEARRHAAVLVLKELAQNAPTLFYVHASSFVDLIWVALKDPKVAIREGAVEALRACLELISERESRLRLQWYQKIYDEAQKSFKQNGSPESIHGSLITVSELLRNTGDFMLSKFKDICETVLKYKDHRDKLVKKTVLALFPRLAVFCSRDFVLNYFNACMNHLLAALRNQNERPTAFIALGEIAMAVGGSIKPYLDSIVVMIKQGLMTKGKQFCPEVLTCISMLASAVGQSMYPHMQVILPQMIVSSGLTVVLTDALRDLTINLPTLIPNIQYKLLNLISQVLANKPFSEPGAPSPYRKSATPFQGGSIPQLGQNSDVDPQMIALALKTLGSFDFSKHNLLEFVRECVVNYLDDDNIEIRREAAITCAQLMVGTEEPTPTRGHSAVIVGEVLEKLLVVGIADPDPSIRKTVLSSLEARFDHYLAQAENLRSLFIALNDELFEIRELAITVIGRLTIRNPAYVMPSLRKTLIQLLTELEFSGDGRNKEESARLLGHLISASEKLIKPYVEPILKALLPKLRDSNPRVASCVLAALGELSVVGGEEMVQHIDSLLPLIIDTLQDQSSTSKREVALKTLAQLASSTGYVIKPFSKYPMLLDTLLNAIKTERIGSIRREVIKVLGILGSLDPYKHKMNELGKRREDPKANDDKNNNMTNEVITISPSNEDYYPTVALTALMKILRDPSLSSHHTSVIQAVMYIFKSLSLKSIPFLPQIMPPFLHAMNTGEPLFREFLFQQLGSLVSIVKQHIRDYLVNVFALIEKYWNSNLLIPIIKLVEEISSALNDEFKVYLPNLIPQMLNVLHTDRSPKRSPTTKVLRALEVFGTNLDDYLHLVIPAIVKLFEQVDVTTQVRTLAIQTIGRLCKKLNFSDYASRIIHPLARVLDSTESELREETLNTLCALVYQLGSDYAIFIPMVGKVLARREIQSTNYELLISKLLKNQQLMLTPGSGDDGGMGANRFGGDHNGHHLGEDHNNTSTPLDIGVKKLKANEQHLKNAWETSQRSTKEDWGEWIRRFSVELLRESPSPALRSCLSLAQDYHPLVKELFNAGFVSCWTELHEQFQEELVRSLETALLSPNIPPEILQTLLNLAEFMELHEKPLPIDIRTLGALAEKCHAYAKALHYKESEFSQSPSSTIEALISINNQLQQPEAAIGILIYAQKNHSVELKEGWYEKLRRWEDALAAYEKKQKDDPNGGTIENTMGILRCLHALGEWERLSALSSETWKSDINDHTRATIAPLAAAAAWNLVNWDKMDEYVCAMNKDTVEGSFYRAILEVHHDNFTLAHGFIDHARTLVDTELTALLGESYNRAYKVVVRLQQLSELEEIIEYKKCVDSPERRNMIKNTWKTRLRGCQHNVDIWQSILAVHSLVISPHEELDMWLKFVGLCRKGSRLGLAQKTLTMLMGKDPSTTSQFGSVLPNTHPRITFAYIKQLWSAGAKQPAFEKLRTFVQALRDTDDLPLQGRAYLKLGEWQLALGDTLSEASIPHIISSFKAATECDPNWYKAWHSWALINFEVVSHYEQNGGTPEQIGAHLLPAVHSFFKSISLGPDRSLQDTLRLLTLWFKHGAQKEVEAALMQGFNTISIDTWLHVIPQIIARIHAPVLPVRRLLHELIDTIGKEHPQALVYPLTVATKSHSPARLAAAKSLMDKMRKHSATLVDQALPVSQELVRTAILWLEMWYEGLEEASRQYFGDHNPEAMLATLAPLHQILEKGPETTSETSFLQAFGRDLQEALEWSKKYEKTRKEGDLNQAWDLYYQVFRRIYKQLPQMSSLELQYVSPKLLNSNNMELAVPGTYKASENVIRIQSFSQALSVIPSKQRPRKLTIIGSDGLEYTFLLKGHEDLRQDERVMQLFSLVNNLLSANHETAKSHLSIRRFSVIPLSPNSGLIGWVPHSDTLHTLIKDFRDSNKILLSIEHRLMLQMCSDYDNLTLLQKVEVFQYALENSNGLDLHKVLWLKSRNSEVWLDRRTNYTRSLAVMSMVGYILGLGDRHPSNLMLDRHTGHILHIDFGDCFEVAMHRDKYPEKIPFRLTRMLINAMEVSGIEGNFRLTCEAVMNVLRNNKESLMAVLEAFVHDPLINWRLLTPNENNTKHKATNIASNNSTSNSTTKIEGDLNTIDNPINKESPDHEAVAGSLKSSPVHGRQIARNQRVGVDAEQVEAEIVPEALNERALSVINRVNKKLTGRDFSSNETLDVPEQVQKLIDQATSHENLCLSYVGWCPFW

Molecular target: TORC2 (Flag-PiaA immunocomplex) (Dictyostelium discoideum, UniProt Q86C65)
Experiment: biochemical

IC50: ~4 nM
Structure (SMILES): CC(C)n1nc(-c2cc3cc(O)ccc3[nH]2)c2c(N)ncnc21 [PP242]
